Source: the supplement of paper PMC7646827
Repeats are few or missing, and single values can be far off.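 All cells are established human bladder cancer lines, one derived from a patient-derived xenograft. A luminescent ATP assay measured viability as percent inhibition relative to vehicle across seven dilutions. The paper rates scores above 59 very active, 30–59 active, 21–29 semi-active, 9–20 low active, below 9 inactive.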

How the values were obtained:
Assay in all cases: drug sensitivity score DSS3 (score 0-100); higher = more sensitive; extreme values may be limits of the assay
Conditions in all cases: culture: 3D, ultra-low attachment; treatment time: 5 days
UM-UC-15 = tested on: UM-UC-15
J82 = tested on: J82
UM-UC-1 = tested on: UM-UC-1
UM-UC-3 = tested on: UM-UC-3
SW780 = tested on: SW780
UM-UC-6 = tested on: UM-UC-6
UM-UC-14 = tested on: UM-UC-14
UM-UC-12 = tested on: UM-UC-12
BC8149 = tested on: BC8149
UM-UC-18 = tested on: UM-UC-18
UM-UC-5 = tested on: UM-UC-5
TCCSUP = tested on: TCCSUP
5637 = tested on: 5637
UM-UC-9 = tested on: UM-UC-9
T-24 = tested on: T-24
SCaBER = tested on: SCaBER
UM-UC-17 = tested on: UM-UC-17

Row | SMILES | drug sensitivity score DSS3 (UM-UC-15) | drug sensitivity score DSS3 (J82) | drug sensitivity score DSS3 (UM-UC-1) | drug sensitivity score DSS3 (UM-UC-3) | drug sensitivity score DSS3 (SW780) | drug sensitivity score DSS3 (UM-UC-6) | drug sensitivity score DSS3 (UM-UC-14) | drug sensitivity score DSS3 (UM-UC-12) | drug sensitivity score DSS3 (BC8149) | drug sensitivity score DSS3 (UM-UC-18) | drug sensitivity score DSS3 (UM-UC-5) | drug sensitivity score DSS3 (TCCSUP) | drug sensitivity score DSS3 5637 | drug sensitivity score DSS3 (UM-UC-9) | drug sensitivity score DSS3 (T-24) | drug sensitivity score DSS3 (SCaBER) | drug sensitivity score DSS3 (UM-UC-17)
1 | Cn1cc(-c2ccc3ncc(Cc4ccc5ncccc5c4)n3n2)cn1 [NVP-BVU972] (max dose 10000 nM) | 0 | 0 | 0 | 0 | 0 | 0 | 0 | 0 | 0 | 0 | 0 | 0 | 0 | 0.151 | 0.0341 | 0 | –
2 | Oc1cccc(-c2nc(N3CCOCC3)c3oc4ncccc4c3n2)c1 [PI-103] (max dose 10000 nM) | 0 | 0 | 6.43 | 38.5 | 0 | 0 | 0 | 38.8 | 37.5 | 6.93 | 0 | – | – | 0 | 0 | 11.9 | 0
3 | Cn1c(Nc2ccc(C(F)(F)F)cc2)nc2cc(Oc3ccnc(-c4ncc(C(F)(F)F)[nH]4)c3)ccc21 [RAF265 (CHIR-265)] (max dose 10000 nM) | 0 | 0.891 | 1.64 | 1.34 | 0 | 4.19 | 3.7 | 0.857 | 10.4 | 0.0482 | 2.07 | 3.86 | – | 0 | 0 | 0 | 0
4 | CC(NC(=O)c1ccccc1/N=C/c1c(O)ccc2ccccc12)c1ccccc1 (centres undefined) [Sirtinol] (max dose 10000 nM) | 3.66 | 0 | 0 | 0 | 0 | 0.252 | 0 | 0 | 0 | 0 | 0 | 0 | 0 | 0 | 0 | 0 | –
5 | CN1CCN(c2nc(C3=C(c4c[nH]c5ccccc45)C(=O)NC3=O)c3ccccc3n2)CC1 [Sotrastaurin] (max dose 10000 nM) | 0 | 0 | 0 | 0 | 0 | 0 | 0 | 0 | 0 | 0 | 0 | 0 | 0 | 0 | 0 | 0 | –
6 | Cn1cncc1[C@@](N)(c1ccc(Cl)cc1)c1ccc2c(c1)c(-c1cccc(Cl)c1)cc(=O)n2C [Tipifarnib] (max dose 10000 nM) | 0 | 0 | 5.11 | 3.14 | 0 | 7.09 | 1.66 | 0.311 | 0.0116 | 4.24 | 0.000196 | 8.32 | – | 0 | 15.6 | 4.44 | 5.01
7 | COc1cc2nccc(Oc3ccc(NC(=O)Nc4cc(C)on4)c(Cl)c3)c2cc1OC [Tivozanib (AV-951)] (max dose 10000 nM) | 3.11 | 12.6 | 0.977 | 0 | 8.21 | 0 | – | 0 | 0 | 0 | 0 | 0.27 | 0 | 0 | 0 | 0 | 0.378
8 | Nc1ccc(-c2ccc3ncc4ccc(=O)n(-c5cccc(C(F)(F)F)c5)c4c3c2)cn1 [Torin 2] (max dose 10000 nM) | 0 | 34.3 | 57.2 | 38.2 | 7.78 | 22.6 | 27.6 | 34.9 | 59.5 | 52.1 | 52 | 51.8 | 43.9 | – | 1.62 | 48.1 | 29.7
9 | O=C(O)c1cc(C(F)(F)F)ccc1N1CC[C@H](OCc2ccccn2)C1 [XEN445] (max dose 10000 nM) | 0 | 0 | 0 | 0.109 | 0 | 1.74e-05 | 2.26 | 0 | 5.55 | 0 | 0 | 8.55 | 2.8 | 0 | 0.701 | 0 | –
10 | CC#C[C@]1(O)CC[C@H]2[C@@H]3CCC4=CC(=O)CCC4=C3[C@@H](c3ccc(N(C)C)cc3)C[C@@]21C [mifepristone] (max dose 10000 nM) | 0 | 0 | 0 | 0 | 0 | 0 | 0 | 0 | 0.000864 | 0 | – | 0 | 0 | 0 | 0 | 0 | 0

Single records, from the list above. Order of values: drug sensitivity score DSS3 (UM-UC-15) | drug sensitivity score DSS3 (J82) | drug sensitivity score DSS3 (UM-UC-1) | drug sensitivity score DSS3 (UM-UC-3) | drug sensitivity score DSS3 (SW780) | drug sensitivity score DSS3 (UM-UC-6) | drug sensitivity score DSS3 (UM-UC-14) | drug sensitivity score DSS3 (UM-UC-12) | drug sensitivity score DSS3 (BC8149) | drug sensitivity score DSS3 (UM-UC-18) | drug sensitivity score DSS3 (UM-UC-5) | drug sensitivity score DSS3 (TCCSUP) | drug sensitivity score DSS3 5637 | drug sensitivity score DSS3 (UM-UC-9) | drug sensitivity score DSS3 (T-24) | drug sensitivity score DSS3 (SCaBER) | drug sensitivity score DSS3 (UM-UC-17)
`Oc1cccc(-c2nc(N3CCOCC3)c3oc4ncccc4c3n2)c1` [PI-103] (max dose 10000 nM) is entered as 0 | 0 | 6.43 | 38.5 | 0 | 0 | 0 | 38.8 | 37.5 | 6.93 | 0 | – | – | 0 | 0 | 11.9 | 0
`Cn1cc(-c2ccc3ncc(Cc4ccc5ncccc5c4)n3n2)cn1` [NVP-BVU972] (max dose 10000 nM) is entered as 0 | 0 | 0 | 0 | 0 | 0 | 0 | 0 | 0 | 0 | 0 | 0 | 0 | 0.151 | 0.0341 | 0 | –
